Among the data in article PMC9753777 are binding values, retold here.

Amino acid sequences for entries named in this document (tags omitted).
UniProt P0C746: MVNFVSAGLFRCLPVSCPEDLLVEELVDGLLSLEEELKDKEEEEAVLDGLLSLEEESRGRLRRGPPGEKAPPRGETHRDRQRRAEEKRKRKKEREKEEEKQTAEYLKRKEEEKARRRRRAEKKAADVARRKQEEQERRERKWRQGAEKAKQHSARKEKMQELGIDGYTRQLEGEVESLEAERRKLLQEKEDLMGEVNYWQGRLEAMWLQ
UniProt P06748: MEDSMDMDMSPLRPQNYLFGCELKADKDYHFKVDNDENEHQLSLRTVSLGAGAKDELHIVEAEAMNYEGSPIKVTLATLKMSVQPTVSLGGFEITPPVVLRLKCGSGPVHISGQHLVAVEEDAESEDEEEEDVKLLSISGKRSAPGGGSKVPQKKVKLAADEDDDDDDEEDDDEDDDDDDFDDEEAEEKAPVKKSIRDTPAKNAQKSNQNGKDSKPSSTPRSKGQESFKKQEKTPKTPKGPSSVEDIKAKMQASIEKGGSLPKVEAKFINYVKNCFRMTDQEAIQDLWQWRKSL

For assay [1], the target named is Myc-tagged uHBZ (HTLV-1 basic leucine zipper factor, unspliced isoform) (HTLV-1) (UniProt P0C746). The assay is described as follows: co-IP; lysates of transfected 293T cells (1% Triton, 100 mM NaCl, pH 8) precipitated with anti-Myc antibody on Dynabeads Protein G, overnight 4°C; Western blot with anti-B23, anti-DsRed, anti-C23, anti-Myc. (In general: A western blot detects proteins with antibodies after separation by electrophoresis.)

Assay [2] has the same target. The assay can be described thus: co-IP; lysates of SupT1 T cells transfected with Myc-tagged sHBZ or uHBZ precipitated with anti-Myc antibodies; Western blot with anti-B23.

Results are given in words; binding and its absence hold for the method and conditions named. In cells and extracts the contact can be indirect. Some binding calls cover weakened binding; strength is not graded here.

Turning to “nucleophosmin (NPM1/B23), endogenous (from UniProt P06748 1-294)”, the binding entry in assay [1] and in assay [2] was “binds” in each case.
